Test results taken from the supplement of paper PMC4604168 (melanoma cell lines).
Some of the results follow. Repeats are few or missing, and single values can be far off.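 The apoptosis fraction was the count of cleaved-PARP antibody-stained nuclei relative to all DNA-stained nuclei, imaged in 1,536-well plates. Screening doses were set so most cells survived, and baseline and induced cleaved-PARP levels vary greatly across cell lines.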

Columns and labels:
Assay in all cases: cleaved PARP positive nuclei fraction relative to DMSO control; melanoma cells; higher = more apoptosis
Settings in all cases: library dose: low library concentration; 72 h
[1] = tested on: WM115
[2] = tested on: WM1716
[3] = tested on: WM1745
[4] = tested on: WM3526
[5] = tested on: WM3619
[6] = tested on: WM451Lu

SMILES	cleaved PARP positive nuclei fraction [1]	cleaved PARP positive nuclei fraction [2]	cleaved PARP positive nuclei fraction [3]	cleaved PARP positive nuclei fraction [4]	cleaved PARP positive nuclei fraction [5]	cleaved PARP positive nuclei fraction [6]
O=C(CCCCCCC(=O)Nc1ccccc1)NO [vorinostat] + O=S(=O)(c1ccccc1)N(CC(F)(F)F)c1ccc(C(O)(C(F)(F)F)C(F)(F)F)cc1 [T0901317] (first compound 0.08 µM, partner dose 1.4 µM)	50.4%	61%	133%	140%	119%	112%
O=C(Nc1cccc(Cl)c1)Nc1ncc(CCNc2ncnc3ccsc23)s1 + COC(=O)c1sccc1S(=O)(=O)Nc1ccc(Nc2ccccc2)cc1OC [GSK0660] (first compound 0.0008 µM, partner dose 1 µM)	84%	95.1%	103%	70.6%	87.1%	64.6%
C#Cc1cccc(Nc2ncnc3cc(OCCOC)c(OCCOC)cc23)c1 [erlotinib] + Cc1nc(Nc2ncc(C(=O)Nc3c(C)cccc3Cl)s2)cc(N2CCN(CCO)CC2)n1 [dasatanib] (first compound 0.8 µM, partner dose 0.004 µM)	271%	39.8%	132%	62.8%	92.3%	264%
Cc1cc(N2CCOCC2)cc2[nH]c(-c3c(NC[C@@H](O)c4cccc(Cl)c4)cc[nH]c3=O)nc12 + NCC(=O)Nc1ccc(-n2nc(C(F)(F)F)cc2-c2ccc3c(ccc4ccccc43)c2)cc1 [OSU03012] (first compound 0.2 µM, partner dose 1 µM)	227%	100%	113%	105%	93.6%	173%
C=CCn1c(=O)c2cnc(Nc3ccc(N4CCN(C)CC4)cc3)nc2n1-c1cccc(C(C)(C)O)n1 + O=C(Nc1ccccc1)c1cc([N+](=O)[O-])ccc1Cl [GW9662] (first compound 0.02 µM, partner dose 2 µM)	137%	87.6%	118%	63.4%	290%	34.6%
Cc1cc(N2CCOCC2)cc2[nH]c(-c3c(NC[C@@H](O)c4cccc(Cl)c4)cc[nH]c3=O)nc12 + COc1cc2ncnc(Nc3ccc(Oc4ccccc4)cc3)c2cc1OC [SrcI1] (first compound 0.2 µM, partner dose 2 µM)	61.7%	118%	127%	80%	88.5%	34%
Nc1cccc2c1CN(C1CCC(=O)NC1=O)C2=O (stereo not drawn) [lenalidomide] + CN(C)S(=O)(=O)c1ccc2c(c1)/C(=C/c1cc3c([nH]1)CCCC3)C(=O)N2 [SU6656] (first compound 1 µM, partner dose 0.4 µM)	136%	70.3%	108%	59.9%	97.9%	92.5%
OCc1c[nH]c2ccccc12 [Indole-3-carbinol] + COc1cc2c(Oc3ccc4[nH]c(C)cc4c3F)ncnc2cc1OCCCN1CCCC1 [cediranib] (first compound 0.8 µM, partner dose 0.4 µM)	146%	40.1%	108%	55.7%	91.2%	78.2%
Cn1c(Nc2ccc(C(F)(F)F)cc2)nc2cc(Oc3ccnc(-c4ncc(C(F)(F)F)[nH]4)c3)ccc21 + c1cc(-c2cnn3cc(-c4ccc(OCCN5CCCCC5)cc4)cnc23)ccn1 [Dorsomorphin] (first compound 0.08 µM, partner dose 0.4 µM)	140%	75.7%	209%	104%	113%	181%
Cc1ccc(NC(=O)c2cccc(N(C)C)c2)cc1NC(=O)c1ccc(O)cc1 + CN(C)S(=O)(=O)c1ccc2c(c1)/C(=C/c1cc3c([nH]1)CCCC3)C(=O)N2 [SU6656] (first compound 2 µM, partner dose 0.4 µM)	416%	81.9%	104%	456%	105%	220%
COc1cc(Nc2ncc(F)c(Nc3ccc4c(n3)NC(=O)C(C)(C)O4)n2)cc(OC)c1OC [Tamatinib] + N#Cc1c(O)c2c(-c3ccc(-c4ccccc4O)cc3)csc2[nH]c1=O [A769662] (first compound 0.4 µM, partner dose 2 µM)	108%	88.6%	114%	62.3%	83.7%	77.7%
C=CCn1c(=O)c2cnc(Nc3ccc(N4CCN(C)CC4)cc3)nc2n1-c1cccc(C(C)(C)O)n1 + COc1ccc(COc2ccc(Cc3cnc(N)nc3N)cc2OC)cc1 [GW2580] (first compound 0.02 µM, partner dose 1 µM)	146%	165%	111%	62.9%	122%	36.7%
C[C@]1(c2nc3c(C(N)=O)cccc3[nH]2)CCCN1 [Veliparib] + O=c1cc(-c2cccc3c2Sc2ccccc2S3)oc(N2CCOCC2)c1 [KU55933] (first compound 1.4 µM, partner dose 1 µM)	84.6%	135%	103%	85.9%	82.2%	81.1%

Record cards (already shown). Values in the order: cleaved PARP positive nuclei fraction [1] | cleaved PARP positive nuclei fraction [2] | cleaved PARP positive nuclei fraction [3] | cleaved PARP positive nuclei fraction [4] | cleaved PARP positive nuclei fraction [5] | cleaved PARP positive nuclei fraction [6]
C#Cc1cccc(Nc2ncnc3cc(OCCOC)c(OCCOC)cc23)c1 [erlotinib] + Cc1nc(Nc2ncc(C(=O)Nc3c(C)cccc3Cl)s2)cc(N2CCN(CCO)CC2)n1 [dasatanib] (first compound 0.8 µM, partner dose 0.004 µM) in the list: 271% | 39.8% | 132% | 62.8% | 92.3% | 264%
O=C(CCCCCCC(=O)Nc1ccccc1)NO [vorinostat] + O=S(=O)(c1ccccc1)N(CC(F)(F)F)c1ccc(C(O)(C(F)(F)F)C(F)(F)F)cc1 [T0901317] (first compound 0.08 µM, partner dose 1.4 µM) in the list: 50.4% | 61% | 133% | 140% | 119% | 112%
